Experiment [1] addresses CEACAM1-eGFP fusion protein on transfected HEK293T cells (human) (UniProt P13688). Put plainly: competition of cell binding (confocal fluorescence microscopy); labelled CbpF nanodiscs on CEACAM1-GFP transfected HEK293T cells, 1 h at 37 °C, without or after preincubation with CEACAM1-ECD; only the binder purified.
Experiment [2] shares this target. The experiment in a line: confocal fluorescence microscopy of labelled protein on cells; 1 µM AlexaFluor 647-labelled CbpF nanodiscs or empty nanodiscs on HEK293T cells transfected with CEACAM1-GFP, 2 h at 37 °C; cell boundaries stained with CellBrite Fix 555; only the binder purified.

Amino acid sequences for entries named in this document (tags omitted). Residues count along the entry.
UniProt P13688, residues 35-526: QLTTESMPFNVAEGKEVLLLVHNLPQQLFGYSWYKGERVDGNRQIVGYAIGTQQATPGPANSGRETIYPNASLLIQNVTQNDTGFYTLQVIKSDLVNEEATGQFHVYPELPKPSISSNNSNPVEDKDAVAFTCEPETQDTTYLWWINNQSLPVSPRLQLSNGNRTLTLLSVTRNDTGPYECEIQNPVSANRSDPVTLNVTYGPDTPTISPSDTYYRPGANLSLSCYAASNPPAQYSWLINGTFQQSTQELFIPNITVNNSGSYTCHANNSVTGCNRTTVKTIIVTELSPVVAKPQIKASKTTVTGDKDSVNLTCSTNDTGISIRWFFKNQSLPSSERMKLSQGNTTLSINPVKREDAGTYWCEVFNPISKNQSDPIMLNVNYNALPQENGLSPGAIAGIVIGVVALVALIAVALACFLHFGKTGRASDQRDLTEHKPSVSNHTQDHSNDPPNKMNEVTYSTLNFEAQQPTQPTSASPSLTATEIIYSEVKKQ
UniProt Q8RIS0, residues 24-479: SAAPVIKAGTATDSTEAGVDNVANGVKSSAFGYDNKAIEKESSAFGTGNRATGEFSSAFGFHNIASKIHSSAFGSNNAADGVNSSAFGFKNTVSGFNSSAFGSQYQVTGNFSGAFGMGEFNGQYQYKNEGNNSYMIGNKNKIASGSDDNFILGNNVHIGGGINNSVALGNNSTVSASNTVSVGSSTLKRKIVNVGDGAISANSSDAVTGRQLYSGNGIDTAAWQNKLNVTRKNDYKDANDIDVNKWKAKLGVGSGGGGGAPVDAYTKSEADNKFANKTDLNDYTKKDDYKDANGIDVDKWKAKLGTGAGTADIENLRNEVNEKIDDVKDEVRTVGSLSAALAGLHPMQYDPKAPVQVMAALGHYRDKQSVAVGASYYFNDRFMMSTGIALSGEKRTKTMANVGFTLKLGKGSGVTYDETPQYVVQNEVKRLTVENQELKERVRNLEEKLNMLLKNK

This passage reports binding results from PMC12012533, “Structural basis for immune cell binding of Fusobacterium nucleatum via the trimeric autotransporter adhesin CbpF” (Proceedings of the National Academy of Sciences of the …, 2025).

No constants are given. Whether binding was seen depends on the method and setting. Some entries that bind do so weakly or less than the wild type.

Consider “CEACAM binding protein of Fusobacterium (CbpF), F. nucleatum ATCC25586, wild type (from UniProt Q8RIS0 24-479)”, for which, in experiment [1], the binding entry was “binds”. In the case of “nanodisc-embedded CbpF labelled with AlexaFluor 647 (from UniProt Q8RIS0 24-479)”, in experiment [2], the binding entry is “binds”.
